Test results published in publication doi:10.1101/2024.12.04.625416.

Target: PbSUN1 with C-terminal GFP tag (SUN1-GFP) (Plasmodium berghei)
Test: affinity purification with mass spectrometry

DDRGK-domain containing UFM1 E3 ligase (from UniProt A0A509AQ22)
binding: binds

Results are given in words; binding and its absence hold for the method and conditions named. Binding seen in cells or lysates may run through a third protein. These calls come from enrichment with a bait or labelling near it, and not all partners need be listed.
